Data as given in PubChem BioAssay AID1508597 (Cure First, 2020)
Shown is an unselected part of the about 2,100 reagents, under one of the conditions tested. 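Calls flag viability under 80% in either arm, not effects specific to rucaparib; the reference for percent is not stated.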 Entries without a mark were called inactive. Not given: the 100% reference.

Screen: 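Survival screen with siRNA in ovarian cancer cells derived from patients, with or without rucaparib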 (primary screen)
Cell system: human ovarian carcinoma lines grown from tumours: OCI-P5x (papillary serous) and OCI-C5x (clear cell)
Reagents: siRNA pool against human genes, 1.25 pmol siRNA per well
Timing: 72 h or 96 h, depending on the cell culture
Conditions: rucaparib 20 µM (about IC30) or vehicle, present until read-out
Rucaparib or vehicle: Rucaparib
Cell line: OCI-P5x (serous)
Read-out: 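Luminescent ATP-based viability assay read 72 or 96 h after transfection, depending on culture, given as normalised percent viability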
Scale: viability, normalised: higher = more viable cells remaining
Active means: 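Active when normalised viability falls below 80 percent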
Calls: active = viability under 80%; inactive = viability 80% or more

| target gene | technical replicate | viability, normalised (%) |
| --- | --- | --- |
| HFM1 | 1 | 83.7 |
| HFM1 | 2 | 78 (active) |
| HFM1 | 3 | 80.3 |
| HSPA5 | 1 | 71.7 (active) |
| HSPA5 | 2 | 85.4 |
| HSPA5 | 3 | 49.6 (active) |
| ACTB | 1 | 65.6 (active) |
| ACTB | 2 | 49.3 (active) |
| ACTB | 3 | 57.7 (active) |
| TTF1 | 1 | 48.4 (active) |
| TTF1 | 2 | 53 (active) |
| TTF1 | 3 | 53.6 (active) |
| SLX1A | 1 | 78 (active) |
| SLX1A | 2 | 79.2 (active) |
| SLX1A | 3 | 96.6 |
| CLP1 | 1 | 80.1 |
| CLP1 | 2 | 94.4 |
| CLP1 | 3 | 74.4 (active) |
| DDA1 | 1 | 76.6 (active) |
| DDA1 | 2 | 53.9 (active) |
| DDA1 | 3 | 66.7 (active) |
| COQ8A | 1 | 119 |
| COQ8A | 2 | 89.8 |
| COQ8A | 3 | 126 |
| CYP7A1 | 1 | 85.4 |
| CYP7A1 | 2 | 85.7 |
| CYP7A1 | 3 | 94.3 |
| PKD2L1 | 1 | 65.3 (active) |
| PKD2L1 | 2 | 60.9 (active) |
| PKD2L1 | 3 | 48.1 (active) |

Entries listed so far whose gene name begins with T or t (3):
| target gene | technical replicate | viability, normalised (%) |
| --- | --- | --- |
| TTF1 | 1 | 48.4 (active) |
| TTF1 | 2 | 53 (active) |
| TTF1 | 3 | 53.6 (active) |

More entries follow:
| target gene | technical replicate | viability, normalised (%) |
| --- | --- | --- |
| SOD2 | 1 | 59.6 (active) |
| SOD2 | 2 | 56.8 (active) |
| SOD2 | 3 | 53.4 (active) |
| IL11 | 1 | 64 (active) |
| IL11 | 2 | 63.2 (active) |
| IL11 | 3 | 66.3 (active) |
| NCOA6 | 1 | 66 (active) |
| NCOA6 | 2 | 69.2 (active) |
| NCOA6 | 3 | 81.2 |
| HIPK2 | 1 | 81.7 |
| HIPK2 | 2 | 94.1 |
| HIPK2 | 3 | 64.2 (active) |
| MINK1 | 1 | 72.9 (active) |
| MINK1 | 2 | 77.7 (active) |
| MINK1 | 3 | 61.5 (active) |
| MED1 | 1 | 54.1 (active) |
| MED1 | 2 | 64 (active) |
| MED1 | 3 | 55.8 (active) |
| MMS19 | 1 | 72.7 (active) |
| MMS19 | 2 | 86 |
| MMS19 | 3 | 69.7 (active) |
| SERPINE2 | 1 | 44.9 (active) |
| SERPINE2 | 2 | 40.9 (active) |
| SERPINE2 | 3 | 58.5 (active) |
| ANKK1 | 1 | 80.5 |
| ANKK1 | 2 | 73.2 (active) |
| ANKK1 | 3 | 74 (active) |
